This assay concerns BDF1 mice, B16 melanoma ip, median survival T/C. Kind of assay: NCI In Vivo Anticancer Drug Screen. Data for tumor model B16 Melanoma (intraperitoneal) in B6D2F1 (BDF1) mice. Particulars: T/C endpoint: median survival time, higher T/C = longer survival. The method in brief:
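Antitumor activity is assessed in mice bearing a transplanted tumor, with survival or tumor size compared against vehicle-dosed controls and expressed as T/C.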

The mark [1] stands for this setting: dose: 37.5 mg/kg/injection, schedule: Q01DX009 (ip), vehicle: saline.
Setting [2] is: dose: 200.0 mg/kg/injection, schedule: Q01DX009 (ip), vehicle: Klucel (hydroxypropylcellulose) (HPC).
[3] abbreviates: dose: 25.0 mg/kg/injection, schedule: Q01DX009 (ip), vehicle: saline.
The mark [4] stands for this setting: dose: 4.0 mg/kg/injection, schedule: Q01DX009 (ip), vehicle: saline.
Setting [5] is: dose: 8.0 mg/kg/injection, schedule: Q01DX009 (ip), vehicle: saline.
[6] abbreviates: dose: 6.25 mg/kg/injection, schedule: Q01DX009 (ip), vehicle: saline.
Where [7] appears, read: dose: 12.5 mg/kg/injection, schedule: Q01DX009 (ip), vehicle: saline.
Setting [8] is: dose: 50.0 mg/kg/injection, schedule: Q01DX009 (ip), vehicle: saline.
The mark [9] stands for this setting: dose: 200.0 mg/kg/injection, schedule: Q01DX009 (ip), vehicle: saline with Tween-80.
[10] abbreviates: dose: 25.0 mg/kg/injection, schedule: Q01DX009 (ip), vehicle: Klucel (hydroxypropylcellulose) (HPC).
Setting [11] is: dose: 50.0 mg/kg/injection, schedule: Q01DX009 (ip), vehicle: Klucel (hydroxypropylcellulose) (HPC).
[12] abbreviates: dose: 400.0 mg/kg/injection, schedule: Q01DX009 (ip), vehicle: saline.

SMILES strings stand for the structures. The list is a part of this screen's results and no random one: it is rich in T/C values a quarter to a half above the control, in often repeated tests (any T/C) and in doses without a T/C. Other doses and runs of a compound stand elsewhere. T/C is the treated group as % of the vehicle group. Some doses have a count of surviving animals in place of a T/C: the source files T/C as zero there, which appears to mark a toxic dose or a test without result, not a measured value. Some doses without a T/C left all or most animals alive at the check, yet need not have been tolerated: the source hardly ever lists a survival T/C far under the control, and the zero likely stands for such cases as well. Survivors were counted at the toxicity check, usually on the fifth day, unless a day is given; later deaths do not show. Schedules are NCI's codes, read here as Q, the interval in days (D) or hours (H), X, the number of doses. Some molecules as drawn cover several salts, stereoisomers or complexes of the source; a dose is that of the sample tested. Some doses were run more than once; the results are listed from low to high. For survival time, the PubChem record calls one and a half times the control and up active, and a quarter to a half above the control has no call in these data; cut-offs in other NCI protocols can differ. Numbered stars: 1 amine (or outer) side, 2 acyl side, 3 side chain; on linkers, the order of the positions; unused ones are H or OH. Square brackets hold non-standard residues; d marks the D form. Peptide text beside a SMILES is read from it. * marks the point of attachment. X6 = CCC(=O)CC1CC(C)CC(C(=O)[*:2])N1[*:1]; X5 = CCCCCCCCC(C)C(=O)*; Aib = CC(C)(N)C(=O)O; X7 = CC(CN(C)CCO)N*

Data on 21 molecules can be found in PubChem BioAssay AID192 (DTP/NCI, 2004).

With `CCCCCCCCC(C)C(=O)N1CCCC1C(=O)N1C(CC(=O)CC)CC(C)CC1C(=O)NC(C)C(=O)NC(C)(C)C(=O)NC(C)(C)C(=O)NC(C(=O)NC(C)C(=O)NC(C)(C)C(=O)NC(C)(C)C(=O)NC(C)CN(C)CCO)C(C)CC` (stereo unspecified) (X5-P[X6]A[Aib][Aib]IA[Aib][Aib]-X7; configuration not given here), under “dose: 5.0 mg/kg/injection, schedule: Q01DX009 (ip), vehicle: Klucel (hydroxypropylcellulose) (HPC)”, the survivor count was 0 of 10.
On to `O=NN(CCF)C(=O)NC1CCC(NC(=O)N(CCF)N=O)CC1` (stereo unspecified), for which, for the setting “dose: 6.25 mg/kg/injection, schedule: Q01DX009 (ip), vehicle: saline with Tween-80”, the T/C is 138 % of control. Further, the survivor count under setting [1] is reported as 10 of 10.
With `CCC1=C(c2cc(Cl)c3ccccc3c2OCC(=O)O)OC(CC)(C(=O)c2cc(Cl)c3ccccc3c2OCC(=O)O)CC1` (stereo unspecified), where the note is “dose: 400.0 mg/kg/injection, schedule: Q04DX003 (ip), vehicle: saline with Tween-80”, the survivor count is 7 of 10.
Consider `C=C(Cl)c1c(C)cc(C)cc1C`, for which the survivor count is, setting by setting: (dose: 100.0 mg/kg/injection, schedule: Q01DX009 (ip), vehicle: Klucel (hydroxypropylcellulose) (HPC)) 9 of 10; under setting [2], 8 of 10.
Regarding `CN1CCC=C(C(=O)N2c3ccccc3Sc3ccc(Cl)cc32)C1`, under setting [3], the survivor count is on record as 8 of 10.
As to `CN(C)CCCN1c2ccccc2Sc2ccc(Cl)cc21`, the survivor count is, setting by setting: under setting [4], 10 of 10; under setting [5], 10 of 10; (dose: 16.0 mg/kg/injection, schedule: Q01DX009 (ip), vehicle: saline) 4 of 10 and 9 of 10; (dose: 18.75 mg/kg/injection, schedule: Q01DX009 (ip), vehicle: saline) 6 of 10; (dose: 32.0 mg/kg/injection, schedule: Q01DX009 (ip), vehicle: saline) 0 of 10 and 1 of 10; under setting [1], 0 of 10. In addition, the survivor count (dose: 75.0 mg/kg/injection, schedule: Q01DX009 (ip), vehicle: saline) is recorded as 0 of 10.
For the molecule `CCCCCCCCCCCCCC[S+](C)C`, the survivor count was 10 of 10 under setting [6], 9 of 10 under setting [7], 1 of 10 under setting [3] and 0 of 10 under setting [8].
Turning to `C#CCOCC1CO1` (stereo unspecified), under setting [9], the survivor count is 3 of 6.
Turning to `C1=CC2(OCCO2)C2CC=CC3(OCCO3)C2C1` (stereo unspecified), the survivor count is, setting by setting: under setting [10], 10 of 10; under setting [2], 7 of 10.
For `CCNCc1cc(Nc2cc(C)nc(/N=C(\N)Nc3ccc(Cl)c(Cl)c3)n2)ccc1OC`, the survivor count under setting [11] was 6 of 10.
For the molecule `CCCCCC(O)C1C(=O)OC(C)C(O)/C=C/C=C/C=C/C=C/C=C(\C)C(O)C(O)C(O)CC(O)CC(O)CC(O)CC(O)CC1O` (stereo unspecified), the T/C runs as follows: (dose: 2.67 mg/kg/injection, schedule: Q01DX009 (ip), vehicle: saline) 144 % of control; under setting [4], 127 % of control; (dose: 6.0 mg/kg/injection, schedule: Q01DX009 (ip), vehicle: saline) 134 % of control; under setting [5], 135 % of control. Besides, the survivor count by setting is: under setting [6], 6 of 10; under setting [7], 0 of 10; under setting [3], 0 of 10.
For `N/C=N/O`, the survivor count under setting [12] is 7 of 10.
Consider `CC(=O)NSCC(NC(=O)OC(C)(C)C)C(=O)O` (stereo unspecified), for which, under setting [12], the survivor count was 10 of 10.
Take `CCCCCCCCCCCCCCCC[N+]1(CC)CCCC1`: the survivor count reads like this: (dose: 0.39 mg/kg/injection, schedule: Q01DX009 (ip), vehicle: Klucel (hydroxypropylcellulose) (HPC)) 10 of 10; (dose: 0.4 mg/kg/injection, schedule: Q01DX009 (ip), vehicle: Klucel (hydroxypropylcellulose) (HPC)) 9 of 10; (dose: 0.78 mg/kg/injection, schedule: Q01DX009 (ip), vehicle: Klucel (hydroxypropylcellulose) (HPC)) 8 of 10; (dose: 1.56 mg/kg/injection, schedule: Q01DX009 (ip), vehicle: Klucel (hydroxypropylcellulose) (HPC)) 5 of 10; (dose: 3.12 mg/kg/injection, schedule: Q01DX009 (ip), vehicle: Klucel (hydroxypropylcellulose) (HPC)) 0 of 10 and 1 of 10; (dose: 6.25 mg/kg/injection, schedule: Q01DX009 (ip), vehicle: Klucel (hydroxypropylcellulose) (HPC)) 1 of 10. Further, the survivor count reads like this: (dose: 12.5 mg/kg/injection, schedule: Q01DX009 (ip), vehicle: Klucel (hydroxypropylcellulose) (HPC)) 0 of 10; under setting [10], 0 of 10; under setting [11], 0 of 10.
With `O=C1N[C@@H]([C@H]2CC[C@H](Cl)CN2)C(=O)N[C@H]1[C@H]1CC[C@H](Cl)CN1`, the T/C by setting is: (dose: 0.2 mg/kg/injection, schedule: Q01DX009 (ip), vehicle: saline) 128 % of control; (dose: 0.4 mg/kg/injection, schedule: Q01DX009 (ip), vehicle: saline) 130 % of control; (dose: 4.0 mg/kg/injection, schedule: Q01DX001 (ip), vehicle: saline) 143 % of control; (dose: 4.0 mg/kg/injection, schedule: Q04DX003 (ip), vehicle: saline) 146 % of control; (dose: 5.0 mg/kg/injection, schedule: Q01DX001 (ip), vehicle: saline) 140 % of control; (dose: 8.0 mg/kg/injection, schedule: Q01DX001 (ip), vehicle: saline) 143 % of control. Moreover, the T/C (dose: 10.0 mg/kg/injection, schedule: Q01DX001 (ip), vehicle: saline) is 142 % of control. The survivor count is, setting by setting: (dose: 8.0 mg/kg/injection, schedule: Q04DX003 (ip), vehicle: saline) 9 of 9; (dose: 10.0 mg/kg/injection, schedule: Q01DX009 (ip), vehicle: saline sonified) 5 of 6; (dose: 20.0 mg/kg/injection, schedule: Q01DX009 (ip), vehicle: saline sonified) 5 of 6; (dose: 40.0 mg/kg/injection, schedule: Q01DX009 (ip), vehicle: saline sonified) 3 of 6; (dose: 80.0 mg/kg/injection, schedule: Q01DX009 (ip), vehicle: saline sonified) 0 of 6.
Turning to `CN1CCC=C(C(=O)N2c3ccccc3Sc3ccccc32)C1`, the survivor count (dose: 100.0 mg/kg/injection, schedule: Q01DX009 (ip), vehicle: saline) is given as 9 of 10.
Consider `O=c1cc(-c2ccccc2)[nH]c(=S)[nH]1`, for which the T/C (dose: 400.0 mg/kg/injection, schedule: Q01DX009 (ip), vehicle: saline with Tween-80) is 125 % of control.
For the molecule `COc1cccc2c1C(=O)c1c(O)c3c(c(O)c1C2=O)CC(O)(C(C)=O)CC3OC1CC(NC(=O)C(CCCCN)NC(=O)C2CCCN2)C(O)C(C)O1` (stereo unspecified), the survivor count runs as follows: (dose: 160.0 mg/kg/injection, schedule: Q01DX001 (ip), vehicle: water) 3 of 10; (dose: 320.0 mg/kg/injection, schedule: Q01DX001 (ip), vehicle: water) 1 of 10.
As to `CN(C)CCC1(c2ccccc2)C=Cc2ccccc21` (stereo unspecified), under setting [8], the survivor count is recorded as 8 of 10.
For `CC(C)C(N)C(=O)Nc1nncs1` (stereo unspecified), the survivor count by setting is: (dose: 200.0 mg/kg/injection, schedule: Q01DX009 (ip), vehicle: saline) 10 of 10; under setting [12], 9 of 10.
Take `Nc1ccc2c(c1)CN1C(=O)c3ccccc3C1=N2`: the survivor count is, setting by setting: (dose: 100.0 mg/kg/injection, schedule: Q01DX009 (ip), vehicle: saline with Tween-80) 10 of 10; under setting [9], 10 of 10.
